In the supplement of paper PMC10849652:
This is one part of the list.

Protein sequences, listed by entry. Tags and fused reporters are not part of them. Lines headed by an entry give the natural chain unless they say otherwise; changes in a name come on top.
UniProt P48443: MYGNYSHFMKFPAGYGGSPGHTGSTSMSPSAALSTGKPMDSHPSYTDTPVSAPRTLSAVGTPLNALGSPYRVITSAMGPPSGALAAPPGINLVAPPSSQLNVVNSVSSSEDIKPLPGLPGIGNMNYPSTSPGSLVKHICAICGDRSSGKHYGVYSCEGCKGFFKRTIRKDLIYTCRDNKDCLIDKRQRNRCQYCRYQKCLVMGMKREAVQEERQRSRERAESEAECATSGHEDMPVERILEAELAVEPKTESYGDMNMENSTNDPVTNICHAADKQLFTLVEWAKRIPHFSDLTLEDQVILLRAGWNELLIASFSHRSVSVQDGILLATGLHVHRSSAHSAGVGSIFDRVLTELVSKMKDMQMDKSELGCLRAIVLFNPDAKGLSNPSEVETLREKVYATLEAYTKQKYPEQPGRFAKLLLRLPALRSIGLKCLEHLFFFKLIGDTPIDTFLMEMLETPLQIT
UniProt Q13296: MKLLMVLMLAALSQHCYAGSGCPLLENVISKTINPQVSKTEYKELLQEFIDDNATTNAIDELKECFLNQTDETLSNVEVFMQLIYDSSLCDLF
UniProt Q9NPB0: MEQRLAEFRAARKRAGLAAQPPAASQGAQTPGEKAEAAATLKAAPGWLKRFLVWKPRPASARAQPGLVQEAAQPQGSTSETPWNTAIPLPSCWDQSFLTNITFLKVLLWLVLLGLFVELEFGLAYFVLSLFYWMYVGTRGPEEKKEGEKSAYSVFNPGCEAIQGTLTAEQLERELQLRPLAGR
UniProt Q9UPU9: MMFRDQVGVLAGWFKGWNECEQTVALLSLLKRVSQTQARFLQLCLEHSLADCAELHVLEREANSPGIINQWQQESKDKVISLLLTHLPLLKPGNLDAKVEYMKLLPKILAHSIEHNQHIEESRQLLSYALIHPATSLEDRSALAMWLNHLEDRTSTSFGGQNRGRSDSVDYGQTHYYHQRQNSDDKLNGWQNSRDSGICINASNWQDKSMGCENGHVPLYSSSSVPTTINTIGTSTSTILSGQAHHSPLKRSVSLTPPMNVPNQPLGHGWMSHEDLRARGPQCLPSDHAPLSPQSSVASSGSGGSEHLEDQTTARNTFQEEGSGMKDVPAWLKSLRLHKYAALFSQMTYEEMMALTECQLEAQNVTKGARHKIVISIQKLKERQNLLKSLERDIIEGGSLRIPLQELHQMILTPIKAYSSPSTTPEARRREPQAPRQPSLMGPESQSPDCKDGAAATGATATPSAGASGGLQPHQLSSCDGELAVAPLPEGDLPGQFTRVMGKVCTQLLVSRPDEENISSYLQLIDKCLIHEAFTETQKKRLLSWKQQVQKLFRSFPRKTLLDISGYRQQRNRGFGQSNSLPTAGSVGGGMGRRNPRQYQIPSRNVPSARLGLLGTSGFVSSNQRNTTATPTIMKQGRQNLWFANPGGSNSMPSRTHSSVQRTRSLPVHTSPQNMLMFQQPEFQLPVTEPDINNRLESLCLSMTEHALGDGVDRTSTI
UniProt Q9H7N4: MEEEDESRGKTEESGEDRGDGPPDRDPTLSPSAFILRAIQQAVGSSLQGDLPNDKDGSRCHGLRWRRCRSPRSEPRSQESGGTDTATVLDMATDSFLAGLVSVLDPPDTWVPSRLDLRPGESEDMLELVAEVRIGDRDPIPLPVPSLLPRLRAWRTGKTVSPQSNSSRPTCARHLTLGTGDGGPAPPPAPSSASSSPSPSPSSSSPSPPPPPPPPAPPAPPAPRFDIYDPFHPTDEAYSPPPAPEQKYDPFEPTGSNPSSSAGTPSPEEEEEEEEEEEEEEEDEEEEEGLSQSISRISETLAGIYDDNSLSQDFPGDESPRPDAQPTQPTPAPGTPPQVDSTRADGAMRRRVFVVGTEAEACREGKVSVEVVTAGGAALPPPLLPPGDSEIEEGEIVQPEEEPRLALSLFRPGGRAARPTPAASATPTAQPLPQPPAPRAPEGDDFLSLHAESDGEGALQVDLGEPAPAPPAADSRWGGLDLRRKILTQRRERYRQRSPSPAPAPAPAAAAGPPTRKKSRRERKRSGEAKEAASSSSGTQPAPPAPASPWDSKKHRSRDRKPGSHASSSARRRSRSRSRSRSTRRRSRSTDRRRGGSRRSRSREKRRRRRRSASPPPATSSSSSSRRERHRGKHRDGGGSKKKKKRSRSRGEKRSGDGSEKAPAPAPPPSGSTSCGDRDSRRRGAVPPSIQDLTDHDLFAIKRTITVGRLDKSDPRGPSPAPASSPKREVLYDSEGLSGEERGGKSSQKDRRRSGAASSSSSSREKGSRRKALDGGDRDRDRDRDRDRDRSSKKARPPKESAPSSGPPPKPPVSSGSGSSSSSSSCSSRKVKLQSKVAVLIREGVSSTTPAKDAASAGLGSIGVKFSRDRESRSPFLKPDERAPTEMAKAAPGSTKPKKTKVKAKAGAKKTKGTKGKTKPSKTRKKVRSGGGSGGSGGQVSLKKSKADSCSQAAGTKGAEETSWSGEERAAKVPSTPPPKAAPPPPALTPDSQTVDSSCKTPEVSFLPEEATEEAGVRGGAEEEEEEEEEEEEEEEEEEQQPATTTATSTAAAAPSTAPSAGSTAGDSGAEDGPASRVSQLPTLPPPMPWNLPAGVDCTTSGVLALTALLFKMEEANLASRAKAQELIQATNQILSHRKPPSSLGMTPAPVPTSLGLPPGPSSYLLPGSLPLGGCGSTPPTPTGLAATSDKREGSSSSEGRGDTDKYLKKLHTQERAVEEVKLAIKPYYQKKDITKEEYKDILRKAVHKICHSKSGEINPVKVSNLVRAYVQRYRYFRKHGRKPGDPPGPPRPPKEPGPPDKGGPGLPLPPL
UniProt Q9HCY8: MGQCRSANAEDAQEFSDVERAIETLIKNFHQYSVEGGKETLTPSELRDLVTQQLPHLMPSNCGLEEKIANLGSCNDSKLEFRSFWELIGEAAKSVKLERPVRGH
UniProt Q92622: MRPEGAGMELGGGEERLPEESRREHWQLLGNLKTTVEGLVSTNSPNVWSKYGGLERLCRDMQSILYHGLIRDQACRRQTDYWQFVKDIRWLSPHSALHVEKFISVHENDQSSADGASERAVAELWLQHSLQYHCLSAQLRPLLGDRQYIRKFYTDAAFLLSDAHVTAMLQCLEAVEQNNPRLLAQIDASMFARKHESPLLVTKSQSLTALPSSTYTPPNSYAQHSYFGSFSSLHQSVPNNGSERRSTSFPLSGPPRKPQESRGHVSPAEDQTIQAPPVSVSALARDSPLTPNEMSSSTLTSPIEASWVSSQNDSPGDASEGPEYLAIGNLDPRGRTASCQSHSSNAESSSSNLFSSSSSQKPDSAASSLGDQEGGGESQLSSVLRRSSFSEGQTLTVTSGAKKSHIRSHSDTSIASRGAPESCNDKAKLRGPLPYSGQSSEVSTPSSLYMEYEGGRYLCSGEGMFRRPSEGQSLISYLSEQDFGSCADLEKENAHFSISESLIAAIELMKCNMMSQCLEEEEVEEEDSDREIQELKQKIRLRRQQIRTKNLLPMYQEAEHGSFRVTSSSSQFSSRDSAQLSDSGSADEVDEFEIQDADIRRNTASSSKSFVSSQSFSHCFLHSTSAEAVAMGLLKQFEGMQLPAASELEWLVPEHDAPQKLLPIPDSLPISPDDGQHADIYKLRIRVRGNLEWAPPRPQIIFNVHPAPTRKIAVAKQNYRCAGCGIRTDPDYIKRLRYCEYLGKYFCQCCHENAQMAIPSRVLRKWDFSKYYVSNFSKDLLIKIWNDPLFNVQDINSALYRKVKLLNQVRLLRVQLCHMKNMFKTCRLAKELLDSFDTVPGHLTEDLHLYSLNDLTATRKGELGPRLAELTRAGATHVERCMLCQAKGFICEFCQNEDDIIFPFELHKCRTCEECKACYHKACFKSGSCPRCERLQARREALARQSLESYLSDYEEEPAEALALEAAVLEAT
UniProt Q7L3V2: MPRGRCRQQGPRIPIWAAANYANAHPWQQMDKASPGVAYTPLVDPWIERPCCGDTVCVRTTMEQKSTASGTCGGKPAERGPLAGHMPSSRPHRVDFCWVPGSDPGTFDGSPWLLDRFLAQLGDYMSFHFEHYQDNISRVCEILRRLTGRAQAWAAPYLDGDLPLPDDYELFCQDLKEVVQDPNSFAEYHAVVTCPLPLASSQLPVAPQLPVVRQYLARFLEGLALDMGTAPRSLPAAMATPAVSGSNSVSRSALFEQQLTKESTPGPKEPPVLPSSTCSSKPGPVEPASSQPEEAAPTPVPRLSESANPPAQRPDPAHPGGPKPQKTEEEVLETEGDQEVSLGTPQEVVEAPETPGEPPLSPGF
UniProt O75556: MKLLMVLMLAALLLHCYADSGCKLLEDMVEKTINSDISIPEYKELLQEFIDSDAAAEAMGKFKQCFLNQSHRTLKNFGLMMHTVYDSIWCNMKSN
UniProt Q9UPW6: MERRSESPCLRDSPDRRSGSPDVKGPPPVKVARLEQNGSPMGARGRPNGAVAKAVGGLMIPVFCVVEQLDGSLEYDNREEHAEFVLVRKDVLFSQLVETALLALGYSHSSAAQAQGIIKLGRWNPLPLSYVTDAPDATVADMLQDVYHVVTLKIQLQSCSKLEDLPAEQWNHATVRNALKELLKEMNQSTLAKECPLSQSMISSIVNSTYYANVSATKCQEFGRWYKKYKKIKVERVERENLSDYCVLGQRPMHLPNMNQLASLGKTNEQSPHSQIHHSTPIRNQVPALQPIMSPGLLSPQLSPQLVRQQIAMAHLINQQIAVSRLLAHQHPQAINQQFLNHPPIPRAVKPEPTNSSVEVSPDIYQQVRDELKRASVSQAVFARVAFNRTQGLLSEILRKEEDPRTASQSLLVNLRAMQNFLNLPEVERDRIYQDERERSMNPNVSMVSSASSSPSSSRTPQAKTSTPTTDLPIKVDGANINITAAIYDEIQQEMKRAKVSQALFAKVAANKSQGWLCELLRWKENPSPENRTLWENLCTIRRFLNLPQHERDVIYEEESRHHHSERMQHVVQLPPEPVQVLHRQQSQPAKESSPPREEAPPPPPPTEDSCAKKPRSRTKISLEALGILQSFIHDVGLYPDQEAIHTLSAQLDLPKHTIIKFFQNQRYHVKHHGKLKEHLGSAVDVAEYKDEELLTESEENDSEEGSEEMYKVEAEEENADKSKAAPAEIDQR
UniProt Q96FQ6: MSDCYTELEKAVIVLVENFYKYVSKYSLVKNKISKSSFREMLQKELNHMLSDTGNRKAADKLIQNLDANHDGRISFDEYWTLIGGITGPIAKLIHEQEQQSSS
UniProt Q99470: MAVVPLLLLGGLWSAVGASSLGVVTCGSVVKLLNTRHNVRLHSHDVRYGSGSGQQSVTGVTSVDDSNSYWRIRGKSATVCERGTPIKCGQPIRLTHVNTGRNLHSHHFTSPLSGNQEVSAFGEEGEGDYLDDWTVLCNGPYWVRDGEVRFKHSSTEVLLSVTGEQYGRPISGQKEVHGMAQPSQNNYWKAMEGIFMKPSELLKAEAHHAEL
UniProt Q96BU1: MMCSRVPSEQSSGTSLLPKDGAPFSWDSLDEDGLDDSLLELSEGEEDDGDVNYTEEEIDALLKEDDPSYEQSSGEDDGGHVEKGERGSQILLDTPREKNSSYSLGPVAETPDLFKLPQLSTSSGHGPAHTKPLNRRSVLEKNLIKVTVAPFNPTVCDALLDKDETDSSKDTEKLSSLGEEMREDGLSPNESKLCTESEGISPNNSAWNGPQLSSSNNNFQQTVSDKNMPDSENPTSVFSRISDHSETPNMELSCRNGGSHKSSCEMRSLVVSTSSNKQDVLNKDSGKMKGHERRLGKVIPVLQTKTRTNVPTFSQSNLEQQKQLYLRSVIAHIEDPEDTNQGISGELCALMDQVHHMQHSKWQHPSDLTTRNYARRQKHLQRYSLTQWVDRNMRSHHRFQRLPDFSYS
UniProt P23297: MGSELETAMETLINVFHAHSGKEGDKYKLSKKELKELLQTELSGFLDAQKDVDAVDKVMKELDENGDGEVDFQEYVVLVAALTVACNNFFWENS
UniProt Q8IZE3: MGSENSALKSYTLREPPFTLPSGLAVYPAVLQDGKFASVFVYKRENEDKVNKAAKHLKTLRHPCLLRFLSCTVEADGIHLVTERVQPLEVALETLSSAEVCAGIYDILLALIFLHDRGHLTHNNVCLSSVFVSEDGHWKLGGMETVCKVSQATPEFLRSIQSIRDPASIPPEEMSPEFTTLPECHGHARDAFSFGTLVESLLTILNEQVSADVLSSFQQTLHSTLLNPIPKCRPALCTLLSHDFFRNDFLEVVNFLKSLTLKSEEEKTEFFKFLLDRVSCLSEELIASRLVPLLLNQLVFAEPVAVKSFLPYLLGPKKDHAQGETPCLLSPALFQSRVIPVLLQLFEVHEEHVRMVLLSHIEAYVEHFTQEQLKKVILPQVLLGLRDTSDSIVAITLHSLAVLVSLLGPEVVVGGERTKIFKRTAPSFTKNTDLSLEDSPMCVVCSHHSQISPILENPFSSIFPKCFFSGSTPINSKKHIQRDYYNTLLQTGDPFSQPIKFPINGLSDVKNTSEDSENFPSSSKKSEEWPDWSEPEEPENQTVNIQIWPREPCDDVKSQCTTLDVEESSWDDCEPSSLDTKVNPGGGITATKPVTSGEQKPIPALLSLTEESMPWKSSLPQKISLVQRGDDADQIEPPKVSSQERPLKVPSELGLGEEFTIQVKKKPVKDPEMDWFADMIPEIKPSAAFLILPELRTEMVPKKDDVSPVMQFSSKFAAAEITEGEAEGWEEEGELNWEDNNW

Assays:
Assay in all cases: log2 fold change, soluble protein after heating vs DMSO (PISA); higher = thermal stabilisation; K562 cells, 10 uM, 30 min; active = over 0.2 and 3.5 SD of the protein, either way, in both replicates (recomputed)
[1] = compound: CN1CCc2c(c3ccccc3n2Cc2ccc(C(=O)NO)cc2)C1 [Tubastatin A]
Summary of the method: (§1)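 K562 cells (2×10^6 cells/mL) were treated with 10 μM compound for 30 min, and aliquots were heated for 3 min over 48°C-58°C. Pooled aliquots were extracted in PBS with 0.5% NP-40 at 4°C, and the supernatant after 21,000xg for 90 min was measured by TMTpro 16plex LC-MS/MS with channel sums equalised. Reported thermal stability, relative to control samples and from duplicates, is a log2 fold change.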

[2] = compound: CN1CCN(c2nc(C3=C(c4c[nH]c5ccccc45)C(=O)NC3=O)c3ccccc3n2)CC1 [sotrastaurin]
Summary of the method: as §1

[3] = compound: CN1CC[C@H](c2c(O)cc(O)c3c(=O)cc(-c4ccccc4Cl)oc23)[C@H](O)C1 [alvocidib]
Summary of the method: as §1

[4] = compound: CNC(=O)C1=CC=CC=C1NC2=NC(=NC=C2Cl)NC3=C(C=C(C=C3)N4CCOCC4)OC
Summary of the method: as §1

[5] = compound: CNC(=O)c1ccc(Nc2ncc(C(F)(F)F)c(NCc3nccnc3N(C)S(C)(=O)=O)n2)cc1 [defactinib]
Summary of the method: as §1

[6] = compound: CNCc1ccc(-c2[nH]c3cc(F)cc4c3c2CCNC4=O)cc1 [rucaparib]
Summary of the method: as §1

[7] = compound: COC(=O)N[C@@H](C)CNc1nccc(-c2cn(C(C)C)nc2-c2cc(Cl)cc(NS(C)(=O)=O)c2F)n1 [encorafenib]
Summary of the method: as §1

[8] = compound: COC(=O)[C@H](CCSC)NC(=O)C1=C(C=C(C=C1)NC[C@H](CS)N)C2=CC=CC=C2
Summary of the method: as §1

[9] = compound: COC1=CC=C(C=C1)CN2C=CC3=C2C=C(C=C3)C(=O)NO
Summary of the method: as §1

[10] = compound: CON(C)C(=O)N1N=C(c2cc(F)ccc2F)S[C@@]1(CCCN)c1ccccc1 [filanesib]
Summary of the method: as §1

[11] = compound: CO[C@H]1C[C@@H]2CC[C@@H](C)[C@@](O)(O2)C(=O)C(=O)N2CCCC[C@H]2C(=O)O[C@H]([C@H](C)C[C@@H]2CC[C@H](n3cnnn3)[C@H](OC)C2)CC(=O)[C@H](C)/C=C(\C)[C@@H](O)[C@@H](OC)C(=O)[C@H](C)C[C@H](C)/C=C/C=C/C=C/1C [zotarolimus]
Summary of the method: as §1

[12] = compound: COc1cc(C(=O)O)ccc1NC(=O)[C@@H]1N[C@@H](CC(C)(C)C)[C@](C#N)(c2ccc(Cl)cc2F)[C@H]1c1cccc(Cl)c1F [idasanutlin]
Summary of the method: as §1

[13] = compound: COc1cc(Nc2ncc3c(n2)-c2ccc(Cl)cc2C(c2c(F)cccc2OC)=NC3)ccc1C(=O)O [alisertib]
Summary of the method: as §1

[14] = compound: COc1cc2nc(-c3cc(F)ccc3O)nc(N[C@@H]3CNC[C@H]3C(C)(C)O)c2cc1OC
Summary of the method: as §1

[15] = compound: COc1cc2ncnc(Nc3ccc(F)c(Cl)c3)c2cc1OCCCN1CCOCC1 [gefitinib]
Summary of the method: as §1

[16] = compound: COc1cccc2cc(-c3nc([C@H]4CC[C@H](C(=O)O)CC4)n4ncnc(N)c34)[nH]c12
Summary of the method: as §1

[17] = compound: CS(=O)(=O)CCNCc1ccc(-c2ccc3ncnc(Nc4ccc(OCc5cccc(F)c5)c(Cl)c4)c3c2)o1 [lapatinib]
Summary of the method: as §1

[18] = compound: CS(=O)(=O)N1CCN(Cc2cc3nc(-c4cccc5[nH]ncc45)nc(N4CCOCC4)c3s2)CC1 [pictilisib]
Summary of the method: as §1

[19] = compound: CN1CCN(CCOc2cc(OC3CCOCC3)c3c(Nc4c(Cl)ccc5c4OCO5)ncnc3c2)CC1 [saracatinib]
Summary of the method: as §1

[20] = compound: CNc1nc(-c2ccc3c(N)n[nH]c3c2)cc(N2C[C@@H](C(=O)NC3CCCCC3)CC[C@H]2C)n1
Summary of the method: as §1

Measured: log2 fold change

SAV1 (UniProt Q9H4B6)
inactive: [1] 0

RRP7A (UniProt Q9Y3A4)
inactive: [2] 0.037 | [3] 0.117 | [1] -0.03 | [4] -0.061 | [5] 0.14 | [6] 0.097 | [7] 0.067 | [8] 0 | [9] -0.076 | [10] 0.027 | [11] 0.13 | [12] 0.294 | [13] 0.07 | [14] 0.034 | [15] -0.063 | [16] -0.098 | [17] -0.021

RXRG (UniProt P48443)
inactive: [1] -0.026 | [18] -0.06

SCGB2A2 (UniProt Q13296)
inactive: [2] 0.092 | [1] 0.338 | [5] 0.111 | [6] -0.09 | [7] 0.05 | [8] 0.272 | [9] 0.471 | [10] 0.093 | [12] 0.005 | [13] -0.109 | [14] 0.168 | [15] 0.279 | [16] 0.111 | [17] 0.004 | [18] -0.249

SCAI isoform 2 (UniProt Q8N9R8)
inactive: [19] 0.009 | [3] -0.021 | [4] 0.016 | [5] 0.004 | [20] -0.072 | [8] -0.163 | [9] -0.078 | [11] 0.047 | [12] -0.153

RXRB isoform 3 (UniProt P28702)
inactive: [2] -0.04 | [10] 0.108

SAYSD1 (UniProt Q9NPB0)
inactive: [2] 0.116 | [3] 0.065 | [4] -0.069 | [6] -0.093 | [7] -0.157 | [10] -0.011 | [11] -0.016 | [13] 0.129 | [14] -0.025 | [16] 0.16 | [17] -0.065

SAMD4A (UniProt Q9UPU9)
inactive: [19] -0.272 | [1] -0.024 | [4] 0.073 | [20] -0.277 | [9] -0.132

SCAMP3 isoform 2 (UniProt O14828)
inactive: [5] 0 | [6] 0.046 | [7] -0.136 | [8] -0.051 | [9] 0.027 | [13] -0.16 | [14] 0.003 | [15] 0.057 | [16] 0.154 | [17] 0.051

SCAF1 (UniProt Q9H7N4)
inactive: [2] 0.295 | [10] 0.009

S100A14 (UniProt Q9HCY8)
inactive: [19] -0.175 | [1] 0.281 | [4] -0.151 | [5] -0.1 | [6] -0.061 | [20] 0.075 | [7] -0.166 | [8] -0.001 | [12] 0.282 | [13] 1.5 | [15] 0.289 | [16] -0.026

RUBCN (UniProt Q92622)
inactive: [5] 0.063 | [8] 0.207

Retrieved one by one from the list above, two records:
SAYSD1 (UniProt Q9NPB0)
inactive: [2] 0.116 | [3] 0.065 | [4] -0.069 | [6] -0.093 | [7] -0.157 | [10] -0.011 | [11] -0.016 | [13] 0.129 | [14] -0.025 | [16] 0.16 | [17] -0.065

RXRG (UniProt P48443)
inactive: [1] -0.026 | [18] -0.06

Remaining list, next part:

RTL10 (UniProt Q7L3V2)
inactive: [19] 0.163 | [3] -0.005 | [1] 0.094 | [5] 0 | [20] -0.398 | [8] -0.198 | [11] 0.032 | [12] -0.199 | [13] 0.95 | [14] -0.124 | [16] 0.064 | [17] 0.114 | [18] -0.159

RWDD3 (UniProt Q9Y3V2)
inactive: [2] -0.131 | [10] 0.106

SCGB2A1 (UniProt O75556)
inactive: [13] 0.122 | [15] 0.298 | [16] -0.163

SCN4A (UniProt P35499)
inactive: [19] 0.133 | [20] 0.061 | [12] 0.219 | [13] -0.076 | [16] 0.146

SATB2 (UniProt Q9UPW6)
inactive: [18] 0.095

SAE1 (UniProt M0R286)
inactive: [2] 0.118 | [3] -0.183 | [4] -0.192 | [5] 0.002 | [8] -0.054 | [9] -0.03 | [10] 0.034 | [11] -0.563 | [13] -0.076 | [14] 0.282 | [16] 0.485 | [17] -0.358

S100A16 (UniProt Q96FQ6)
inactive: [19] -0.115 | [1] 0.151 | [4] 0.204 | [5] -0.049 | [6] -0.071 | [20] 0.087 | [7] -0.299 | [8] -0.35 | [9] 0.349 | [13] 1.17 | [15] 0.383 | [16] -0.051

SDF2 (UniProt Q99470)
inactive: [1] 0.114 | [4] 0.155 | [9] -0.165 | [14] -0.222 | [17] 0.374 | [18] 0.025

S100PBP (UniProt Q96BU1)
inactive: [2] 0.037 | [3] -0.322 | [1] 0.141 | [4] -0.053 | [5] -0.08 | [6] -0.124 | [7] -0.06 | [8] 0.227 | [9] -0.127 | [10] -0.081 | [11] 0.089 | [12] 0.024 | [13] -0.021 | [14] -0.019 | [15] -0.007 | [16] 0.029 | [17] -0.069 | [18] -0.145

S100A1 (UniProt P23297)
inactive: [2] 0.053 | [4] 0.18 | [9] 0.24 | [10] -0.024 | [15] 0.029

SCYL3 isoform 2 (UniProt Q8IZE3)
inactive: [19] 0.014 | [1] -0.063 | [4] -0.042 | [5] -0.014 | [6] 0.06 | [20] -0.009 | [7] 0.021 | [8] -0.025 | [9] 0.017 | [11] 0.008 | [12] -0.117 | [13] 0.063 | [14] 0.039 | [15] 0.063 | [16] 0.032 | [17] -0.084 | [18] 0.018

S100A4 (UniProt P26447)
inactive: [4] 0.123 | [6] 0.043 | [7] 0.075 | [9] 0.077 | [12] 0.101 | [14] 0.033 | [15] 0.008 | [17] 0.098

SDHB, A0A087WXX8
inactive: [19] -0.039 | [3] 0.08 | [4] -0.007 | [5] 0.024 | [20] -0.147 | [8] 0.205 | [11] -0.049 | [12] 0.076 | [13] -0.127 | [14] 0.077 | [15] -0.087 | [16] -0.024 | [17] -0.103 | [18] 0.144

SAFB2 (UniProt K7EQU4)
inactive: [9] 0.115 | [15] -0.126
